# Assay results published in the supplement of paper PMC10849652.
# Amino acid sequences for entries named in this document (tags omitted). A change or cut given only in a name is not applied to a line headed by its entry.
# UniProt P11142, whole entry, looked up: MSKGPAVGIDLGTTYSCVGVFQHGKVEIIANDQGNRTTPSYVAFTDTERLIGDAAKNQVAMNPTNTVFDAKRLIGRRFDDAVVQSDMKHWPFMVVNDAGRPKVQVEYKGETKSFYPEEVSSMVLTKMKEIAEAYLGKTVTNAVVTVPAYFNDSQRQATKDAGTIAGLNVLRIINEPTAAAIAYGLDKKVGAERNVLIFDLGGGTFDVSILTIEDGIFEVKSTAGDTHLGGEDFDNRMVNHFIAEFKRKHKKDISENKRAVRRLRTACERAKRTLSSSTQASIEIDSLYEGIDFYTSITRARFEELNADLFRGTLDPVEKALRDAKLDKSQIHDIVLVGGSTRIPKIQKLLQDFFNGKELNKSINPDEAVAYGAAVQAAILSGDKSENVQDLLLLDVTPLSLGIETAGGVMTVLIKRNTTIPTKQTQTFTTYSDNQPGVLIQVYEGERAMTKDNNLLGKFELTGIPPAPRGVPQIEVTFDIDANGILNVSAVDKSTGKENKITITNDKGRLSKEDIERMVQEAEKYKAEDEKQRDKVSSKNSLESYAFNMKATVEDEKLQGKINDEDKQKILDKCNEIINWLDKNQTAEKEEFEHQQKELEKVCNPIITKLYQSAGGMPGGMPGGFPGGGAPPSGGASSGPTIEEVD
# UniProt O75146: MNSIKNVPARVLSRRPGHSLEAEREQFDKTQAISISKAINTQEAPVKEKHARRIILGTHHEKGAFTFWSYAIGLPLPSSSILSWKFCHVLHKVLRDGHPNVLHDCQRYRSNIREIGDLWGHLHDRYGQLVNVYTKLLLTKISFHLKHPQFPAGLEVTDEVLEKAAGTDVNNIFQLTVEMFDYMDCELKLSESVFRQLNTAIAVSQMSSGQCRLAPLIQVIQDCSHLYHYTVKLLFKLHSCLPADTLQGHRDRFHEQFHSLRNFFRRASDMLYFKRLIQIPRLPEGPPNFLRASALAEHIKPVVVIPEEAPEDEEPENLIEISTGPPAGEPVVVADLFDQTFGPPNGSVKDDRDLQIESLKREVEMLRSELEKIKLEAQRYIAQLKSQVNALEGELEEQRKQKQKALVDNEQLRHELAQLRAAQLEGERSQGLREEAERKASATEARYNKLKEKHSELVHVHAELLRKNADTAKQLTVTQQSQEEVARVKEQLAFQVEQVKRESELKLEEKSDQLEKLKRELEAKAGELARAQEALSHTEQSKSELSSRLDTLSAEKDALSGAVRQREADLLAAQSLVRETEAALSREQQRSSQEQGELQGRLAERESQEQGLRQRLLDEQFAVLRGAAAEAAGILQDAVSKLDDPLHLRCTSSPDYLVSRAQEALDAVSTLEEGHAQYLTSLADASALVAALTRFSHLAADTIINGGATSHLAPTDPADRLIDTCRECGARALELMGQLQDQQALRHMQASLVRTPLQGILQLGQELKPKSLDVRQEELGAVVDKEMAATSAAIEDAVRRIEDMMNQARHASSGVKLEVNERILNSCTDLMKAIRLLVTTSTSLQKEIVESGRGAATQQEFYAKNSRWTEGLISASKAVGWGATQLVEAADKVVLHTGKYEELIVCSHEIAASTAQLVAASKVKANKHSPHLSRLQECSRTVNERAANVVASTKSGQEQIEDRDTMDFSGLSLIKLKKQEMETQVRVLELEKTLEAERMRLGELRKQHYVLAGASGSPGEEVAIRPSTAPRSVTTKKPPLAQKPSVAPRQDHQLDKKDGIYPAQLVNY
# UniProt P09429: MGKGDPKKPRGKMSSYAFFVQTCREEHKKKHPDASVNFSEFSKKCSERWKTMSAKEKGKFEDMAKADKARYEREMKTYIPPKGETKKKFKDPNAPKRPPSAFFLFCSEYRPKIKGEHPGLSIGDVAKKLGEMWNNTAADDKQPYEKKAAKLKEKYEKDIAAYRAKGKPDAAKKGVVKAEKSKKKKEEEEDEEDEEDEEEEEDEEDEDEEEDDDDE
# UniProt Q7Z6Z7, whole entry, looked up: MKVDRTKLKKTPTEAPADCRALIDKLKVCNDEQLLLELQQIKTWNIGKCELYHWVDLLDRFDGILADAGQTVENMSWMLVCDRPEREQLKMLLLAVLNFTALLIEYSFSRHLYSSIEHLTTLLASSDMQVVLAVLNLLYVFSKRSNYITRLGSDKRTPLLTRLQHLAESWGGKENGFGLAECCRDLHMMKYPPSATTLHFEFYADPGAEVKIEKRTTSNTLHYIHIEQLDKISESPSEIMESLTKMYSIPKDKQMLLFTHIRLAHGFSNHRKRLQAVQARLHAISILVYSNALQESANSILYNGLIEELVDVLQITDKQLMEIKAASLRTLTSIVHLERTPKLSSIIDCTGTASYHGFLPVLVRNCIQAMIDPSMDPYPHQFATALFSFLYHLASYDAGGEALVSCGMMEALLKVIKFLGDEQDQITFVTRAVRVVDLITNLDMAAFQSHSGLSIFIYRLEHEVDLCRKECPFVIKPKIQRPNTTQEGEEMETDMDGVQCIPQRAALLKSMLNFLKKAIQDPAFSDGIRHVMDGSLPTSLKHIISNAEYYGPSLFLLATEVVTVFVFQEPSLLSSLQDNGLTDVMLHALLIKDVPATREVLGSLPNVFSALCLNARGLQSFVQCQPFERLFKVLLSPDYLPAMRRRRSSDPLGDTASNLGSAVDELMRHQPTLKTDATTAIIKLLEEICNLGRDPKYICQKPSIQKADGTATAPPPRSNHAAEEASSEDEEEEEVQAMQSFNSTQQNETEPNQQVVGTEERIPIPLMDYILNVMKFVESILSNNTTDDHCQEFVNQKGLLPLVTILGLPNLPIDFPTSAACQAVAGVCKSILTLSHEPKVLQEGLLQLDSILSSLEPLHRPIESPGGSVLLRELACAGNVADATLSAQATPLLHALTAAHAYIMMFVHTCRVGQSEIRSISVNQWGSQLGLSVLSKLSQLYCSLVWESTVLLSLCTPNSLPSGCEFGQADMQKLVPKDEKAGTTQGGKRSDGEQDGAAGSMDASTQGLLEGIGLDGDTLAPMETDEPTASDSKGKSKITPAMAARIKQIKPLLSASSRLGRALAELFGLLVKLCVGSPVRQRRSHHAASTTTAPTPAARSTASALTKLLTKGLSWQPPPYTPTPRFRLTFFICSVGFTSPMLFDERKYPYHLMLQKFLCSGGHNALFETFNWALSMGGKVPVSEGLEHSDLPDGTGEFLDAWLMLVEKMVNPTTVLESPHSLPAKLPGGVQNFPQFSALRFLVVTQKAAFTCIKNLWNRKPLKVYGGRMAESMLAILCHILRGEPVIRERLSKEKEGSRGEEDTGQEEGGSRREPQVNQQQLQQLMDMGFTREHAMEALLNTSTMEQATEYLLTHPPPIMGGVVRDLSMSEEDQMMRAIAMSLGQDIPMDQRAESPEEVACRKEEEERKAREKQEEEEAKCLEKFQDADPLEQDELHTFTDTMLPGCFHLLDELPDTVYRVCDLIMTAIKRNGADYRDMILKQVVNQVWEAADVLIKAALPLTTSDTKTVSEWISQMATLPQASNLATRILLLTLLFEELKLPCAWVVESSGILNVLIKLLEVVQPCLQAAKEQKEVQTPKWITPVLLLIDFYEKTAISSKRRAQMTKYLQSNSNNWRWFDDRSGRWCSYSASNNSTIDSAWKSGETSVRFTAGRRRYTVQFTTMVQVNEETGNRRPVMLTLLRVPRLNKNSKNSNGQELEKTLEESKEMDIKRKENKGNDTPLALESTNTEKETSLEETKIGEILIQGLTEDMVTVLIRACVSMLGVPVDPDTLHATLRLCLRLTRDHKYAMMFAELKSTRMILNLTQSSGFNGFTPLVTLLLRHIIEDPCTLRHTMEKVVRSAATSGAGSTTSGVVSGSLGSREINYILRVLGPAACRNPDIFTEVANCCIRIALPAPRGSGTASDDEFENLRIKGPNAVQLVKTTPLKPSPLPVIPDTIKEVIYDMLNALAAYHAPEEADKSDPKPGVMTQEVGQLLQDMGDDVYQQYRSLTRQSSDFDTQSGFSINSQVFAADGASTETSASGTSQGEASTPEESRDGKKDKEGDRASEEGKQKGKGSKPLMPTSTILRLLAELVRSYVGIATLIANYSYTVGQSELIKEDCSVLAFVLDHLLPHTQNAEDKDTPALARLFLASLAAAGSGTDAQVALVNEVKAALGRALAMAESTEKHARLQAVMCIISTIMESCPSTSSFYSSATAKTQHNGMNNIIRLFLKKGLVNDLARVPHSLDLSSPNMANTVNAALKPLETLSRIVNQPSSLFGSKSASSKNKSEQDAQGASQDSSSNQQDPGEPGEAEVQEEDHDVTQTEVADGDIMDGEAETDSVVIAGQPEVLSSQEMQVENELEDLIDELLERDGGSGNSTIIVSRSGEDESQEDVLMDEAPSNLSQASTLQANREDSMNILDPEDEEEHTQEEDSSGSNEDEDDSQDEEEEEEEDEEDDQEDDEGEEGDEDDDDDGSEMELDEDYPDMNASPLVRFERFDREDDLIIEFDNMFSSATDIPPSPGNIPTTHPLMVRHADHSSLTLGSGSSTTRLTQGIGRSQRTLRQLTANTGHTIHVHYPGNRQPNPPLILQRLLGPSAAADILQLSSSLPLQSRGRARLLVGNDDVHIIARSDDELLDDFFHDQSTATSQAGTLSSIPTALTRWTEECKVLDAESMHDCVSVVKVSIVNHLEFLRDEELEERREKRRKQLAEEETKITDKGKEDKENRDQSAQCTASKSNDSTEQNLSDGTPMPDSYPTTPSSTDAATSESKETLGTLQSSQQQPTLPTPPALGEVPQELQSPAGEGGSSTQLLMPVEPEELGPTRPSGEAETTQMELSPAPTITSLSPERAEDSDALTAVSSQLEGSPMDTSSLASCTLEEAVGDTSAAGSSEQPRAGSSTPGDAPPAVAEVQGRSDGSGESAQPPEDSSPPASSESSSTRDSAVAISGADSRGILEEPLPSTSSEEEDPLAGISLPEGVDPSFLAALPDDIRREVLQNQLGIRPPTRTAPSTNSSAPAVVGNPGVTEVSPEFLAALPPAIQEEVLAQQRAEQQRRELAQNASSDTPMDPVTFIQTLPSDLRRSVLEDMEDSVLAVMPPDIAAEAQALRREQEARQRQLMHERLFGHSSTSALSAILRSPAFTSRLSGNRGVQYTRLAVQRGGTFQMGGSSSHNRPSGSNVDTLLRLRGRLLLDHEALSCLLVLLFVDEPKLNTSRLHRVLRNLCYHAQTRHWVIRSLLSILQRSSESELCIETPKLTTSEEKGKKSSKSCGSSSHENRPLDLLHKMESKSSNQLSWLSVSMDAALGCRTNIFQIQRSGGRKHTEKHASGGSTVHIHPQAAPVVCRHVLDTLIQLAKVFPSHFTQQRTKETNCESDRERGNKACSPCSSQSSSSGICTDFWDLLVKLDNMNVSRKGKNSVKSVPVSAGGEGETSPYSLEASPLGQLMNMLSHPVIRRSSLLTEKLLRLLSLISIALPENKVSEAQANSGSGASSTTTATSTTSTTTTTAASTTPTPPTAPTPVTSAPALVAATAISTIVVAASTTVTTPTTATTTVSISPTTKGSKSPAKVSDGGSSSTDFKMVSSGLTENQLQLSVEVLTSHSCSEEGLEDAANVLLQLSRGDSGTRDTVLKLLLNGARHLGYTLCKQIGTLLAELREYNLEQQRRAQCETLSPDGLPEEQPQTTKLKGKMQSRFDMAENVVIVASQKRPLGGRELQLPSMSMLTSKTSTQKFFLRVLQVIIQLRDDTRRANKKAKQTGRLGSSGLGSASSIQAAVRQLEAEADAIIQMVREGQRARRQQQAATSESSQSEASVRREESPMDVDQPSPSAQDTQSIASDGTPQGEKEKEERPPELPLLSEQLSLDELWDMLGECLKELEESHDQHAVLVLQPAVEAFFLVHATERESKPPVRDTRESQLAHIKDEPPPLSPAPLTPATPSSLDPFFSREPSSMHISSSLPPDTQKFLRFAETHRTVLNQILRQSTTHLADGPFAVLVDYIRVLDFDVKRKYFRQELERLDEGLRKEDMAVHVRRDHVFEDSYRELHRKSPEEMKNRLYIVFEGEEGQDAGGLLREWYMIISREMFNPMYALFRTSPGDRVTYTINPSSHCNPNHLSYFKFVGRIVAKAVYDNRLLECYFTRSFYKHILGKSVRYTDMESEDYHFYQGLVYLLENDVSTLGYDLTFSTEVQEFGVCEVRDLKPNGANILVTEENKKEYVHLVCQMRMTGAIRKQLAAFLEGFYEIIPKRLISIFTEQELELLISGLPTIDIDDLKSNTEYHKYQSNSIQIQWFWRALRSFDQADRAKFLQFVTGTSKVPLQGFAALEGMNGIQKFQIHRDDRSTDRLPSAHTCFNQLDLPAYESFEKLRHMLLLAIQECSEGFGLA
# UniProt Q6DN03, whole entry, looked up: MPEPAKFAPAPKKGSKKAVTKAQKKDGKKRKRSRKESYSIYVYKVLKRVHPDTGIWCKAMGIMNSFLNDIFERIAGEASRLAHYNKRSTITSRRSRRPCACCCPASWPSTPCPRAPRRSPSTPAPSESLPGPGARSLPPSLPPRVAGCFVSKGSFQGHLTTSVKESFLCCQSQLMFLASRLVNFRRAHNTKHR
# UniProt Q15651: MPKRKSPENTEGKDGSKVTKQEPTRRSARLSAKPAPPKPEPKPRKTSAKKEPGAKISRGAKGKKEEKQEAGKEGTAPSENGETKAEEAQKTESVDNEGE
# Some of the results follow.
# Compound: NCC(=O)Nc1ccc(-n2nc(C(F)(F)F)cc2-c2ccc3c(ccc4ccccc43)c2)cc1
# Assay: log2 fold change, soluble protein after heating vs DMSO (PISA); higher = thermal stabilisation; K562 cells, 10 uM, 30 min; active = over 0.2 and 3.5 SD of the protein, either way, in both replicates (recomputed)
# Outline: (§1)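 K562 cells at 2×10^6 cells/mL were treated with 10 μM compound for 30 min. Aliquots were heated for 3 min across 48°C-58°C, pooled, and extracted in PBS with 0.5% NP-40 at 4°C; soluble protein was the supernatant after 21,000xg for 90 min. Soluble protein was quantified by TMTpro 16plex LC-MS/MS with channel sums equalised, and reported as log2 fold change in thermal stability against DMSO controls, with values from duplicates.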
row,Target,log2 fold change
1,HIRIP3 (UniProt Q9BW71),inactive: -0.01
2,HMBS (UniProt P08397),inactive: 0.072
3,HMGCL (UniProt P35914),inactive: 0.083
4,HINT1 (UniProt P49773),inactive: -0.035
5,HNRNPA1 (UniProt H0YH80),inactive: 0.385
6,"HYOU1, A0A494C039",inactive: 0.052
7,HIP1 (UniProt O00291),inactive: 0.038
8,HNRNPUL2 (UniProt Q1KMD3),inactive: 0.017
9,HSD17B4 (UniProt P51659),inactive: -0.002
10,HSPA8 (UniProt P11142),inactive: 0.012
11,HSPA14 (UniProt Q0VDF9),inactive: -0.058
12,HIP1R (UniProt O75146),inactive: 0.014
13,HSD17B12 (UniProt Q53GQ0),inactive: 0.066
14,HMGCS1 (UniProt Q01581),inactive: 0.02
15,HGS (UniProt O14964),inactive: -0.046
16,HMGB1 (UniProt P09429),inactive: 0.1
17,HM13 isoform 2 (UniProt Q8TCT9),inactive: -0.035

row,Target,log2 fold change
1,HNRNPK isoform 2 (UniProt P61978),inactive: -0.093
2,HSPA6 (UniProt P17066),inactive: -0.012
3,HMGN4 (UniProt O00479),inactive: 0.297
4,HSPA8 (UniProt E9PN89),inactive: -0.372
5,IDE (UniProt P14735),inactive: -0.033
6,HNRNPDL (UniProt O14979),inactive: 0.054
7,HUWE1 (UniProt Q7Z6Z7),inactive: -0.038
8,HSPA4L (UniProt O95757),inactive: -0.041
9,HMGN5 (UniProt Q5JSK9),inactive: -0.303
10,HLCS (UniProt P50747),inactive: -0.061
11,HIST2H2BC (UniProt Q6DN03),inactive: -0.01
12,HHEX (UniProt Q03014),active: 0.568
13,HMGN3 (UniProt Q15651),inactive: -0.065
14,HTD2 (UniProt P86397),inactive: 0.144
15,HSDL1 (UniProt Q3SXM5),inactive: -0.005
16,HTATIP2 isoform 3 (UniProt Q9BUP3),inactive: -0.037

# Compound: Nc1ccccc1NC(=O)c1ccc(CNC(=O)OCc2cccnc2)cc1 [entinostat]
# Assay: as above
# Outline: as §1
row,Target,log2 fold change
1,HIRIP3 (UniProt Q9BW71),inactive: 0.002
2,HMBS (UniProt P08397),inactive: -0.026
3,HMGCL (UniProt P35914),inactive: -0.039
4,HINT1 (UniProt P49773),inactive: 0.012
5,HNRNPA1 (UniProt H0YH80),inactive: -0.125
6,"HYOU1, A0A494C039",inactive: 0.032
7,HIP1 (UniProt O00291),inactive: -0.061
8,HNRNPUL2 (UniProt Q1KMD3),inactive: -0.026
9,HSD17B4 (UniProt P51659),inactive: -0.021
10,HSPA8 (UniProt P11142),inactive: -0.009
11,HSPA14 (UniProt Q0VDF9),inactive: 0.059
12,HIP1R (UniProt O75146),inactive: 0.027
13,HSD17B12 (UniProt Q53GQ0),inactive: -0.02
14,HMGCS1 (UniProt Q01581),inactive: 0.018
15,HGS (UniProt O14964),inactive: 0.016
16,HMGB1 (UniProt P09429),inactive: 0.007
17,HM13 isoform 2 (UniProt Q8TCT9),inactive: 0.013

row,Target,log2 fold change
1,HNRNPK isoform 2 (UniProt P61978),inactive: 0.056
2,HSPA6 (UniProt P17066),inactive: -0.02
3,HMGN4 (UniProt O00479),inactive: 0.249
4,HSPA8 (UniProt E9PN89),inactive: -0.135
5,IDE (UniProt P14735),inactive: 0.044
6,HNRNPDL (UniProt O14979),inactive: -0.098
7,HUWE1 (UniProt Q7Z6Z7),inactive: 0.008
8,HSPA4L (UniProt O95757),inactive: 0.008
9,HMGN5 (UniProt Q5JSK9),inactive: -0.199
10,HLCS (UniProt P50747),inactive: 0.02
11,HIST2H2BC (UniProt Q6DN03),inactive: 0.056
12,HHEX (UniProt Q03014),inactive: 0.045
13,HMGN3 (UniProt Q15651),inactive: -0.027
14,HTD2 (UniProt P86397),inactive: -0.016
15,HSDL1 (UniProt Q3SXM5),inactive: -0.053
16,HTATIP2 isoform 3 (UniProt Q9BUP3),inactive: -0.006

# Compound: O=C(CCCCCCC(=O)Nc1ccccc1)NO [vorinostat]
# Assay: as above
# Outline: as §1
row,Target,log2 fold change
1,HIRIP3 (UniProt Q9BW71),inactive: 0.004
2,HMBS (UniProt P08397),inactive: -0.028
3,HMGCL (UniProt P35914),inactive: 0.029
4,HINT1 (UniProt P49773),inactive: -0.117
5,HNRNPA1 (UniProt H0YH80),inactive: -0.031
6,"HYOU1, A0A494C039",inactive: 0.078
7,HIP1 (UniProt O00291),inactive: -0.013
8,HNRNPUL2 (UniProt Q1KMD3),inactive: -0.004
9,HSD17B4 (UniProt P51659),inactive: -0.07
10,HSPA8 (UniProt P11142),inactive: -0.01
11,HSPA14 (UniProt Q0VDF9),inactive: 0.094
12,HIP1R (UniProt O75146),inactive: 0.069
13,HSD17B12 (UniProt Q53GQ0),inactive: -0.014
14,HMGCS1 (UniProt Q01581),inactive: 0.002
15,HGS (UniProt O14964),inactive: 0.016
16,HMGB1 (UniProt P09429),inactive: -0.031
17,HM13 isoform 2 (UniProt Q8TCT9),inactive: -0.044

row,Target,log2 fold change
1,HNRNPK isoform 2 (UniProt P61978),inactive: 0.065
2,HSPA6 (UniProt P17066),inactive: -0.053
3,HMGN4 (UniProt O00479),inactive: 0.013
4,HSPA8 (UniProt E9PN89),inactive: -0.057
5,IDE (UniProt P14735),inactive: 0.016
6,HNRNPDL (UniProt O14979),inactive: -0.031
7,HUWE1 (UniProt Q7Z6Z7),inactive: 0.03
8,HSPA4L (UniProt O95757),inactive: 0.025
9,HMGN5 (UniProt Q5JSK9),inactive: 0
10,HLCS (UniProt P50747),inactive: -0.057
11,HIST2H2BC (UniProt Q6DN03),inactive: 0.206
12,HHEX (UniProt Q03014),inactive: 0.012
13,HMGN3 (UniProt Q15651),inactive: 0.017
14,HTD2 (UniProt P86397),inactive: -0.105
15,HSDL1 (UniProt Q3SXM5),inactive: -0.042
16,HTATIP2 isoform 3 (UniProt Q9BUP3),inactive: 0.038
